Laboratory results taken from the supplement of paper PMC12889115.
The list shows a part of the results. Values are raw readings; no control value is given beside them.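 In the initial screen, polymyxin B was used at a concentration that permeabilizes Salmonella's outer membrane but not its inner membrane. Maximum growth was set by DMSO wells with or without polymyxin B. Since plates varied, data were ranked per plate, and compounds giving the lowest OD600 advanced as hits.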

Tested on: Salmonella enterica serovar Typhimurium SL1344
Test: bacterial growth OD600 after 18 h with compound and polymyxin B; higher = more bacterial growth (less inhibition)
Settings: 50 µM, Mueller-Hinton broth

| Structure (SMILES) | bacterial growth OD600 (polymyxin B 0.75 µg/mL) | bacterial growth OD600 (polymyxin B 1 µg/mL) |
| --- | --- | --- |
| CC(C)Cc1ccc(CN2CCOc3ccc(CN4CCC(O)(c5cccnc5)CC4)cc3C2)cc1 | 0.006 | – |
| CC(C)C[C@H](NC(=O)C1(N(C)C)Cc2ccccc2C1)C(N)=O | 0.82 | – |
| CCCNC(=O)N1CCCC(Cc2ccc(F)cc2F)(C(=O)OCC)C1 (stereo not drawn) | – | 0.877 |
| CCn1cc(CN(C)CC2CCN(CCc3cccc(F)c3)CC2)cn1 | – | 1.14 |
| COC(=O)c1ccc(CNC(=O)CN2Cc3ccccc3OC(c3ccccc3F)C2)cc1 (stereo not drawn) | 0.849 | – |
| COC(=O)CCC(=O)NC1CCCN(Cc2ccc(CC(C)C)cc2)C1 (stereo not drawn) | – | 1.15 |
| CCC1CN(CC(=O)NCCCOc2cccnc2)Cc2cc(OC)ccc2O1 (stereo not drawn) | 0.871 | – |
| O=C(c1cc(COc2ccc(-n3cncn3)cc2)on1)N1CCCCC1c1ccccn1 (stereo not drawn) | – | 0.849 |
